Test results: patent publication US20240109945A1
These are yes or no findings as the source states them, for the method shown. Some entries that bind do so weakly or less than the wild type.

By UniProt entry, the sequences of proteins in these tests, tags left out. Residues count along the entry.
UniProt P00433, residues 31-338: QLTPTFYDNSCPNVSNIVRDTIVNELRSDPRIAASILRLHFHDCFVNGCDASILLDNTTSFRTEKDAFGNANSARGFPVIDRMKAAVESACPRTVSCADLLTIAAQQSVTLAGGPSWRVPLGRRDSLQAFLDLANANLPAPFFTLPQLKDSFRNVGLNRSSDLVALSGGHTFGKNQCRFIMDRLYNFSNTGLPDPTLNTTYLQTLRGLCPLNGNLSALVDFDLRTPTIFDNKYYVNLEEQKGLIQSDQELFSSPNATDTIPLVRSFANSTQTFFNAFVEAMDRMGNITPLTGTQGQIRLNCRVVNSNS
UniProt P01012, residues 2-386: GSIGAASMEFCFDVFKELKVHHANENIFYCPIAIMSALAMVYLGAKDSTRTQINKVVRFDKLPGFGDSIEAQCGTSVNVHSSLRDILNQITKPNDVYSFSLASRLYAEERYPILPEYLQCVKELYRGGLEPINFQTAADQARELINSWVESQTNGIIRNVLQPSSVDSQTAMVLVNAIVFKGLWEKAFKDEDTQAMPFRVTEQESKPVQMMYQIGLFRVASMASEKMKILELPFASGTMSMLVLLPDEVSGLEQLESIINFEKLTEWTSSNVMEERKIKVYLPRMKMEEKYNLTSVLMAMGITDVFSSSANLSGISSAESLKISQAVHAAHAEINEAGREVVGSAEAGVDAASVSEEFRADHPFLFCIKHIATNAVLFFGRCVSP

B1: Variant Fbs1-1 (designed binder)
chain: MGSSHHHHHHHHSSGENLYFQSHMASQQEGLVPEGSADEERDHWQQFYFLSKRRRNLLRNPCGEEDLEGWSDVEHGGDGWRVEELPGDNGVEFTQDDSVKKYFASSFEWCRKAQVIDLQAEGYWEELLDTTQPAIVVKDWYSGRTDAGSLYELTVRLLSENEDVLAEFATGQVAVPEDGSWMEISHTFIDYGPGVRFVRFEHGGQDSVYWKGWFGARVTNSSVWVEP
B2: Variant Fbs1-2 (designed binder)
chain: MGSSHHHHHHHHSSGENLYFQSHMASQQEGLVPEGSADEERDHWQQFYFLSKRRRNLLRNPCGEEDLEGWSDVEHGGDGWRVEELPGDNGVEFTQDDSVKKYFASSYRWCRKAQVIDLQAEGYWEELLDTTQPAIVVKDWYSGRTDAGSLYELTVRLLSENEDVLAEFATGQVAVPEDGSWMEISHTFIDYGPGVRFVRFEHGGQDSVYWKGWFGARVTNSSVWVEP

Experiments:
[1] = molecular target: Horse Radish Peroxidase (horse radish) (UniProt P00433); test: Western blot, 1 µg glycoprotein, Fbs1 variant as probe
Ovalbumin = Ovalbumin (UniProt P01012); test: as above

binding [1]	binding (Ovalbumin)	Binder
binds	binds	B1
binds	binds	B2
